This data set has as its system NIDD STZ rats. Description: Streptozotocin-induced NIDD diabetic rats, eight-day oral treatment, plasma biological parameters. Type of data set: in vivo, male Wistar rats. The method, then: 40 male Wistar rats (Charles River, Saint Aubin les Elbeuf, France), with an average weight of 280 g, are used in this experiment. The animals are housed for one week in a standardised animal house, the following parameters of which are controlled: The forty rats are made diabetic by IP administration of 50 mg/kg of streptozotocin dissolved in physiological saline (a single administration). […] For each rat, 100 μl of blood are collected by venepuncture in a caudal vein, onto heparin, at time D0 (before the administration of STZ), at time D21 (21 days after STZ, before the treatments) and at D29 (after eight days of treatment). The samples are immediately centrifuged (10 minutes at 4000 rpm) and the plasma is separated from the blood cells. […] After thawing the plasma samples, the above parameters are determined by enzymatic methods, using a COBAS automated machine (Roche). The glycaemia is measured by the hexokinase method; the cholesterol by the enzymatic final Randox point method; the triglycerides by the GPO-PAP method; the lactic acid by the lactic dehydrogenase method. The circulating insulin is measured by radioimmunoassay using CEA kits. The efficacy of the treatments is evaluated between […] by a t test adapted to paired series (for each rat, the value at D21 relative to D29 serves as the control).

As for `CN(C)C(=N)N=C(N)N` [Metformin, metformin], the Weight was 288 g (metformin 30 mg/kg/day group, D0 (before STZ)) and 247 g (metformin (hydrochloride) 30 mg/kg/day orally in two doses, D29 (after eight days of treatment)).

The values above are taken from patent US20040039031A1, “Novel pharmaceutical compositions having an antidiabetic action, and process for their preparation” (priority 2000, published 2004).
